# Measurements reported in PubChem BioAssay AID504793 (Drosophila RNAi Screening Center, 2011)
# Test: 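Knock-downs allowing continued mitosis even though DNA is damaged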 (primary screen)
# Cell system: Drosophila S2R+ cells
# Knock-down reagent: long dsRNA against Drosophila genes, about 0.25 µg dsRNA per well
# Timing: 4 days of dsRNA, then 4 hours of drug before read-out
# Treatment: doxorubicin 0.5 µM for 4 hours to cause double-strand breaks, in cells also given a low, harmless dose of dsRNA against nbs to sensitise the assay
# Read-out: 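Mitotic index as the number of phospho-histone H3-positive cells in each well following doxorubicin, given as raw counts without normalisation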
# Direction: mitotic cells: higher = more cells in mitosis, weaker G2 arrest
# Call rule: 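Genes are called active only when high mitotic counts were reproduced with independent dsRNAs and mitosis was checked for delay without damage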
# Meaning of the calls: active = confirmed in follow-up tests; inactive = not confirmed
# The screen tested about 23,000 reagents; this is a random part of those with a known target gene and a result. Of all reagents, 62 (0.27%) got an active call. 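Calls come from follow-up tests whose scores are not deposited, so confirmed genes may have low counts here; counts are not normalised per plate.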 Raw values are not corrected between plates. Reagents against one gene are numbered here. Names joined by + are all predicted targets of the reagent. Reagent sequences are not shown.
gene knocked down,reagent,"mitotic cells, replicate 1","mitotic cells, replicate 2",outcome
CG16772,1,3,,inactive
CG16772,2,4,,inactive
CG13287,1,5,,inactive
CG13287,2,5,,inactive
Orcokinin,1,4,,inactive
CG34205,1,5,,inactive
CG34205,2,17,,inactive
CG3726,1,8,,inactive
CG3726,2,1,,inactive
ftz-f1 (ftz transcription factor 1),1,2,,inactive
ftz-f1 (ftz transcription factor 1),2,6,,inactive
mGluR (metabotropic Glutamate Receptor),1,12,,inactive
scpr-C + scpr-B + scpr-A,1,4,,inactive
CG14696,1,1,,inactive
CDK2AP1 (CDK2-associated protein 1),1,5,,inactive
CDK2AP1 (CDK2-associated protein 1),2,9,,inactive
l(2)05714 (lethal (2) 05714),1,3,,inactive
l(2)05714 (lethal (2) 05714),2,13,,inactive
CG33155 + mRpL53,1,6,,inactive
CG33155 + mRpL53,2,6,,inactive
Antdh (Antennal dehydrogenase),1,2,,inactive
Antdh (Antennal dehydrogenase),2,12,,inactive
CG2616,1,2,,inactive
CG2616,2,1,,inactive
"CysRS-m (Cysteinyl-tRNA synthetase, mitochondrial)",1,10,,inactive
Cnot4 (CCR4-NOT transcription complex subunit 4),1,11,,inactive
Cnot4 (CCR4-NOT transcription complex subunit 4),2,15,,inactive
L (retired record),1,6,,inactive
L (retired record),2,3,,inactive
CG14480,1,9,,inactive
CG15221,1,9,,inactive
BicD (Bicaudal D),1,1,,inactive
CG31908,1,10,,inactive
salto,1,3,,inactive
salto,2,13,,inactive
Paics (PAICS bifunctional enzyme),1,6,,inactive
eIF3l (eukaryotic translation initiation factor 3 subunit l),1,4,,inactive
eIF3l (eukaryotic translation initiation factor 3 subunit l),2,3,,inactive
MED15 (Mediator complex subunit 15),1,6,,inactive
MED15 (Mediator complex subunit 15),2,6,,inactive
CG12945,1,4,,inactive
CG12935 + Nop10,1,7,,inactive
CG10132,1,5,,inactive
CG10132,2,4,,inactive
CG2444,1,6,,inactive
Rrp1 (Recombination repair protein 1),1,10,,inactive
Rrp1 (Recombination repair protein 1),2,7,,inactive
CG15878,1,5,,inactive
CG15878,2,5,,inactive
Rabex-5 (Rabaptin-5-associated exchange factor for Rab5),1,5,,inactive
Rabex-5 (Rabaptin-5-associated exchange factor for Rab5),2,4,,inactive
CG42788,1,4,,inactive
CG42788,2,9,,inactive
CG42788,3,7,,inactive
CG42788,4,11,,inactive
Claspin,1,16,,inactive
CG4617,1,7,,inactive
CG4617,2,10,,inactive
Ddc (Dopa decarboxylase),1,3,,inactive
Vsx2 (Visual system homeobox 2),1,7,12,inactive
Vsx2 (Visual system homeobox 2),2,14,,inactive
Vsx2 (Visual system homeobox 2),3,15,,inactive

Next part; the last 14 above are carried over.
gene knocked down,reagent,"mitotic cells, replicate 1","mitotic cells, replicate 2",outcome
CG15878,2,5,,inactive
Rabex-5 (Rabaptin-5-associated exchange factor for Rab5),1,5,,inactive
Rabex-5 (Rabaptin-5-associated exchange factor for Rab5),2,4,,inactive
CG42788,1,4,,inactive
CG42788,2,9,,inactive
CG42788,3,7,,inactive
CG42788,4,11,,inactive
Claspin,1,16,,inactive
CG4617,1,7,,inactive
CG4617,2,10,,inactive
Ddc (Dopa decarboxylase),1,3,,inactive
Vsx2 (Visual system homeobox 2),1,7,12,inactive
Vsx2 (Visual system homeobox 2),2,14,,inactive
Vsx2 (Visual system homeobox 2),3,15,,inactive
CG33127,1,7,,inactive
nrm (neuromusculin),1,16,,inactive
nrm (neuromusculin),2,11,,inactive
Acox57D-p (acyl-Coenzyme A oxidase at 57D proximal),1,5,,inactive
Git (G protein-coupled receptor kinase interacting ArfGAP),1,4,,inactive
Git (G protein-coupled receptor kinase interacting ArfGAP),2,5,,inactive
Pp1-13C (Protein phosphatase 1 at 13C),1,25,,inactive
Pp1-13C (Protein phosphatase 1 at 13C),2,4,,inactive
Pp1-13C (Protein phosphatase 1 at 13C),3,11,,inactive
CG12480,1,15,,inactive
CG12480,2,7,,inactive
Cog6 (Component of oligomeric golgi complex 6),1,8,,inactive
Cog6 (Component of oligomeric golgi complex 6),2,10,,inactive
Daxx (Daxx-like protein),1,4,,inactive
Daxx (Daxx-like protein),2,5,,inactive
CAH14 (Carbonic anhydrase 14),1,4,,inactive
CAH14 (Carbonic anhydrase 14),2,18,,inactive
Cpr67B (Cuticular protein 67B),1,9,,inactive
RpL4 (Ribosomal protein L4),1,7,,inactive
RpL4 (Ribosomal protein L4),2,10,,inactive
Cpr47Ed (Cuticular protein 47Ed),1,7,,inactive
CG5762,1,11,,inactive
CG16965,1,7,,inactive
Rpe (Ribulose-5-phosphate-3-epimerase),1,7,,inactive
c11.1,1,14,,inactive
Naa30B (N(alpha)-acetyltransferase 30 B),1,3,,inactive
CG15715,1,10,,inactive
CG15715,2,10,,inactive
CG42336,1,25,,inactive
CG42336,2,9,,inactive
CG42336,3,10,,inactive
CG42336,4,8,,inactive
CG42336,5,6,,inactive
Dhps (Deoxyhypusine synthase),1,10,,inactive
l(2)k09848 (lethal (2) k09848),1,3,,inactive
CG1314,1,6,,inactive
Tim17b1,1,10,,inactive
Cen (Centrocortin),1,7,,inactive
Atg8a (Autophagy-related 8a),1,8,,inactive
Atg8a (Autophagy-related 8a),2,6,,inactive
Baldspot,1,4,,inactive
CG14881,1,9,,inactive
CG14881,2,6,,inactive
CG31036,1,4,,inactive
CG31036,2,4,,inactive
Tmlh (Trimethyllysine hydroxylase),1,6,,inactive
CG4593,1,7,,inactive
CG4593,2,3,,inactive
